The target in one assay is T1, GST-CycA (Cyclin A) (UniProt P14785).
T1 sequence: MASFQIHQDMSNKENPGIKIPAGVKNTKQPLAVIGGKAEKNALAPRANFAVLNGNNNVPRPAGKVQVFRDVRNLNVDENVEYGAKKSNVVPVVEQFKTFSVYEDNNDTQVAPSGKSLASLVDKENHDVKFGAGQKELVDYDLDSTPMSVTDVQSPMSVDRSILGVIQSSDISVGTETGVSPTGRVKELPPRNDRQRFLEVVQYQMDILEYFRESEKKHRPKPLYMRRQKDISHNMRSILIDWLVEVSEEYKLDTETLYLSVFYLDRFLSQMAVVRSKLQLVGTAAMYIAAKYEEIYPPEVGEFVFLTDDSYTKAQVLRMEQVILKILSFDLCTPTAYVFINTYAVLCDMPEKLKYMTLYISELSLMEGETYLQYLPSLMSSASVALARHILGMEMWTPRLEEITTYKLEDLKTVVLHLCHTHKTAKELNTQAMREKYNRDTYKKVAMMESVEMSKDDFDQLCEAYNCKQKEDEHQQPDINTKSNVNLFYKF
Nature of the assay: pull-down; purified GST-tagged protein on beads incubated with 5 µl in vitro translation reaction (reticulocyte lysate) in 500 µl IP buffer, 2 h at 4°C; 3 washes; Western blot with anti-Myc 9E10; only the target purified.

In assay [1] the target is T2, GST-tagged Mtrm (Matrimony) (Drosophila melanogaster, UniProt Q23973 1-217).
T2 construct: mtrm cDNA LD47919 cloned into pGEX6p-1; also called GST-Mtrm; source: expressed and purified from bacteria
T2 sequence (looked up): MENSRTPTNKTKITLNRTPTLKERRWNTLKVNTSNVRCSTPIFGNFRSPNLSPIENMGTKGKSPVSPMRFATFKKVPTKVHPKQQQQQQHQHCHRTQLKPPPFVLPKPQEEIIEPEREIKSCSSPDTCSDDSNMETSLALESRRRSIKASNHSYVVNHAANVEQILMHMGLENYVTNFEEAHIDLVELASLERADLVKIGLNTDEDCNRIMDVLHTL
The assay is described as above.

Here are results for three molecules from article PMC3760765, “A Meiosis-Specific Form of the APC/C Promotes the Oocyte-to-Embryo Transition by Decreasing Levels of the Polo Kinase Inhibitor Matrimony” (PLoS Biology, 2013).

Results are given in words; binding and its absence hold for the method and conditions named. Binding seen in cells or lysates may run through a third protein. Some binding calls cover weakened binding; strength is not graded here. Where a sequence is shown, tags or fusion partners need not be part of it.

B1: 6×Myc-Fzy/Cdc20, in vitro translated (natural protein, Drosophila melanogaster, UniProt Q24044 1-526, looked up)
chain: MSQFNFVSDLQNALIMDGETRGPAPRWKKKLEASLNGSVNTTRSVLSVSYNTSFSGVQAPTKTPGKSSEGKTKKSNTTPSKTPGGGDRFIPNRAATNFELAHFLVNKDSGDKSDEENDKATSSNSNESNVQASAHKGDRQKLISEVAQVGDSKGGRILCYQNKAPAAPETHNNPLKVVYSIKTPISTKSGSRYIPTTSERILDAPDFINDYYLNLMDWSADNIVAVALGSCVYLWNAQTGNIEQLTEFEEGDYAGSLSWIQEGQILAIGNSTGAVELWDCSKVKRLRVMDGHSARVGSLAWNSFLVSSGSRDGTIVHHDVRAREHKLSTLSGHTQEVCGLKWSTDFKYLASGGNDNLVNVWSAASGGVGTATDPLHKFNDHQAAVRALAWCPWQPSTLASGGGTADRCIKFWNVNNGTLMKSVDSKSQVCSLLFSRHYKELISAHGFANNQLTIWKYPTMVKQADLTGHTSRVLQMAMSPDGSTVISAGADETLRLWNCFAPDPLASKKAVSTSKGKQSVFRQSIR
notes: 6×myc-fzy/cdc20 cDNA cloned into pOT2; also called Myc-tagged Fzy/Cdc20; Fizzy; source: in vitro translated (TnT T7 Coupled Reticulocyte Lysate System, rabbit reticulocyte lysate)
For B1, the binding result with GST-CycA (Cyclin A) is recorded as “binds”.

B2: 6×Myc-Cortex (full length), in vitro translated (natural protein, Drosophila melanogaster, UniProt Q960N3 1-483, looked up)
chain: MFVEMSVCDSPNKNSKLDKKSLTPFKKVRRKNWKQEAAYKSDTSKGQEVSYVGERFIPNRFERENIEFNLKYIGKRKERDILETGVTLTASYWRQSGFISNINRTFGIGERRLFQFSSQQGTRSRVVDNDSADSDWPCNPRARPYAIQNATHEMPGICSPVDYNMMDWSSGGMVAMSSGQDVMLWRNLDESTMVFSVESPTSLKYSPDGKHLAIGCMDRNYPVLDLWEVRSPTEFLVSYRKLFFKSMGYISCIEWSHDGKEVICGTQCGVIIVLAMPTLNTLMQLREHRHTVKKMKFAPTHKYFASSDTDGKIFIFDAVLKVRLLKLDGRSIVFDWHPWTGEDLAVAERSPASIFIFNIPRRQFVASYRRRDDRIVIKTLTYSKITGELLVNVIRRDDADLAVCEILVLASLNRVVDLMSHQDRGTLFLMWNPDGTKIATGGLDDTFSLWNFFPTYKREAILRKQEQKAKDKCSSLSLYKGIR
notes: 6×myc-cort cDNA cloned into pOT2; also called Myc-tagged Cort; source: in vitro translated (TnT T7 Coupled Reticulocyte Lysate System, rabbit reticulocyte lysate)
In the case of B2, the binding entry (in assay [1]; in the assay with GST-CycA (Cyclin A)) was “binds” each time.

B3: 6×Myc-CortexΔWD40 (AA 1–148 of Cortex), in vitro translated (domain or fragment, UniProt Q960N3 1-148)
chain: MFVEMSVCDSPNKNSKLDKKSLTPFKKVRRKNWKQEAAYKSDTSKGQEVSYVGERFIPNRFERENIEFNLKYIGKRKERDILETGVTLTASYWRQSGFISNINRTFGIGERRLFQFSSQQGTRSRVVDNDSADSDWPCNPRARPYAIQ
For B3, the binding entry in assay [1] is “binds”.
